In the assay the test system is P388 leukemia ip, CD2F1 mice, survival T/C. The assay can be described thus: NCI In Vivo Anticancer Drug Screen. Data for tumor model P388 Leukemia (intraperitoneal) in CD2F1 (CDF1) mice. The settings on record: T/C endpoint: median survival time, higher T/C = longer survival.
Where [1] appears, read: dose: 25.0 mg/kg/injection, schedule: Q01DX005 (ip), vehicle: Klucel (hydroxypropylcellulose) (HPC).
[2] abbreviates: dose: 50.0 mg/kg/injection, schedule: Q01DX005 (ip), vehicle: Klucel (hydroxypropylcellulose) (HPC).
Where [3] appears, read: dose: 100.0 mg/kg/injection, schedule: Q01DX005 (ip), vehicle: Klucel (hydroxypropylcellulose) (HPC).
Where [4] appears, read: dose: 200.0 mg/kg/injection, schedule: Q01DX005 (ip), vehicle: Klucel (hydroxypropylcellulose) (HPC).
The mark [5] stands for this setting: dose: 60.0 mg/kg/injection, schedule: Q01DX005 (ip), vehicle: saline with Tween-80.
Where [6] appears, read: dose: 120.0 mg/kg/injection, schedule: Q01DX005 (ip), vehicle: saline with Tween-80.
[7] abbreviates: dose: 240.0 mg/kg/injection, schedule: Q01DX005 (ip), vehicle: saline with Tween-80.
The mark [8] stands for this setting: dose: 200.0 mg/kg/injection, schedule: Q01DX009 (ip), vehicle: saline.
Where [9] appears, read: dose: 3.0 mg/kg/injection, schedule: Q01DX005 (ip), vehicle: saline + alcohol.
Where [10] appears, read: dose: 6.0 mg/kg/injection, schedule: Q01DX005 (ip), vehicle: saline + alcohol.
[11] abbreviates: dose: 100.0 mg/kg/injection, schedule: Q01DX009 (ip), vehicle: saline with Tween-80.
The mark [12] stands for this setting: dose: 200.0 mg/kg/injection, schedule: Q01DX009 (ip), vehicle: saline with Tween-80.
[13] abbreviates: dose: 400.0 mg/kg/injection, schedule: Q01DX009 (ip), vehicle: saline with Tween-80.

The source of these data is PubChem BioAssay AID330 (DTP/NCI, 2004).

The list is a part of this screen's results and no random one: it gathers tests that were run many times, whatever their T/C, doses with no T/C, and many T/C values between a quarter and a half above the control. Other doses and runs of a compound stand elsewhere. T/C is the treated group as % of the vehicle group. Some entries give survivors of the animals treated and no T/C: the source holds a T/C of zero for them, seemingly a mark for toxic or unscored doses. Some survivor counts are full or nearly so, which does not show that the dose was tolerated: the source hardly ever lists a survival T/C far under the control, and the zero likely stands for such cases as well. Survivors were counted at the toxicity check, usually on the fifth day, unless a day is given; later deaths do not show. Schedule codes are those of the source, read here as Q, the interval in days (D) or hours (H), X, the number of doses. Some entries were tested several times; their values stand side by side, smallest first. For survival time, the PubChem record calls one and a half times the control and up active, and a quarter to a half above the control has no call in these data; cut-offs in other NCI protocols can differ. Some T/C values carry the count of animals alive at the toxicity check (mostly the fifth day); where none is given, no animal had died by that day.

As to `CN=C(c1ccc(NC(=O)c2ccc(C(=O)Nc3ccc(C(=NC)N(C)C4CCCCC4)cc3)cc2)cc1)N(C)C1CCCCC1`, the survivor count is, setting by setting: (dose: 6.25 mg/kg/injection, schedule: Q01DX005 (ip), vehicle: Klucel (hydroxypropylcellulose) (HPC)) 0 of 6; (dose: 12.5 mg/kg/injection, schedule: Q01DX005 (ip), vehicle: Klucel (hydroxypropylcellulose) (HPC)) 0 of 6; under setting [1], 0 of 6; under setting [2], 0 of 6; under setting [3], 0 of 6; under setting [4], 0 of 6.

Regarding `COc1cc(/C=N/N2CC(=O)N(c3cccc(Cl)c3)CC2=O)cc(OC)c1`, the survivor count is 6 of 6 under setting [5], 6 of 6 under setting [6] and 5 of 6 under setting [7].

Take `N#CC1OC1c1ccc[n+]([O-])c1` (stereo not drawn): the survivor count (dose: 25.0 mg/kg/injection, schedule: Q01DX005 (ip), vehicle: saline) is reported as 1 of 6.

`Cc1ccc(S)c(S)c1`: the survivor count runs as follows: (dose: 50.0 mg/kg/injection, schedule: Q01DX009 (ip), vehicle: DMSO) 0 of 6; (dose: 100.0 mg/kg/injection, schedule: Q01DX009 (ip), vehicle: DMSO) 0 of 6; (dose: 200.0 mg/kg/injection, schedule: Q01DX009 (ip), vehicle: DMSO) 0 of 6; under setting [8], 4 of 6; (dose: 400.0 mg/kg/injection, schedule: Q01DX009 (ip), vehicle: DMSO) 0 of 6; (dose: 400.0 mg/kg/injection, schedule: Q01DX009 (ip), vehicle: saline) 2 of 6. Also, the survivor count (dose: 600.0 mg/kg/injection, schedule: Q01DX009 (ip), vehicle: saline) is 3 of 6. Under setting [8], the T/C was 129 % of control [5 of 6 alive].

Regarding `O=c1nc2[nH]c3c4cccc5cccc(c3nc2c(=O)[nH]1)c54`, the survivor count under setting [4] was 5 of 5.

On to `CCC1N=C(N)N=C(N)N1c1ccc(Cl)c(Cl)c1` (stereo not drawn), for which the T/C under setting [1] was 127 % of control [4 of 5 alive]. Moreover, the survivor count by setting is: under setting [2], 2 of 5; under setting [3], 0 of 5; under setting [4], 0 of 5.

For the molecule `N#Cc1ccc(Br)cc1[N+](=O)[O-]`, the survivor count reads like this: (dose: 6.25 mg/kg/injection, schedule: Q01DX009 (ip), vehicle: Klucel (hydroxypropylcellulose) (HPC)) 6 of 6; (dose: 12.5 mg/kg/injection, schedule: Q01DX009 (ip), vehicle: Klucel (hydroxypropylcellulose) (HPC)) 6 of 6; (dose: 25.0 mg/kg/injection, schedule: Q01DX009 (ip), vehicle: Klucel (hydroxypropylcellulose) (HPC)) 4 of 6.

As for `C=CCNc1ccc(C)cc1`, the T/C (dose: 75.0 mg/kg/injection, schedule: Q01DX009 (ip), vehicle: saline with Tween-80) was 141 % of control.

With `Cc1ccc(NC(=S)NCC2CCCO2)cc1C` (stereo not drawn), the survivor count is 6 of 6 (dose: 50.0 mg/kg/injection, schedule: Q01DX009 (ip), vehicle: Klucel (hydroxypropylcellulose) (HPC)); 5 of 6 and 6 of 6 (dose: 100.0 mg/kg/injection, schedule: Q01DX009 (ip), vehicle: Klucel (hydroxypropylcellulose) (HPC)).

Consider `O=C1OC(=O)C2CCCC1C2`, for which the survivor count (dose: 400.0 mg/kg/injection, schedule: Q01DX009 (ip), vehicle: Klucel (hydroxypropylcellulose) (HPC)) is 0 of 6.

As for `CCC/C=C/C=C\C(=O)O[C@@H]1[C@@H](C)[C@]2(O)[C@@H]3C=C(C)C(=O)[C@H]3CC(COC(C)=O)=C[C@H]2[C@@H]2C(C)(C)[C@]12OC(C)=O`, the T/C (dose: 0.75 mg/kg/injection, schedule: Q01DX005 (ip), vehicle: saline + alcohol) was 98, 104, 105, 153 % of control; the T/C (dose: 1.5 mg/kg/injection, schedule: Q01DX005 (ip), vehicle: saline + alcohol) is given as 101, 105, 108, 177 % of control; the T/C under setting [9] is on record as 106, 110, 288 % of control; the T/C under setting [10] is 119 and 130 % of control. The survivor count reads like this: under setting [9], 3 of 5; under setting [10], 2 of 5 and 5 of 5; (dose: 6.0 mg/kg/injection, schedule: Q01DX005 (ip), vehicle: saline with Tween-80) 0 of 5; (dose: 12.0 mg/kg/injection, schedule: Q01DX005 (ip), vehicle: saline + alcohol) 0 of 6.

In the case of `C=C(CCCC)[Se]c1ccccc1`, under “dose: 50.0 mg/kg/injection, schedule: Q01DX009 (ip), vehicle: saline with Tween-80”, the T/C is 135 % of control. In addition, the survivor count under setting [11] is given as 5 of 6 and the survivor count under setting [12] is listed as 1 of 6, 3 of 6, 4 of 6.

Regarding `C1CC(CCC2CCNCC2)CCN1`, the survivor count is, setting by setting: (dose: 100.0 mg/kg/injection, schedule: Q01DX009 (ip), vehicle: saline) 3 of 6; under setting [8], 0 of 6.

For `CSc1nnc2nc[nH]n12`, the survivor count (dose: 400.0 mg/kg/injection, schedule: Q01DX001 (ip), vehicle: saline with Tween-80) is 6 of 6.

Consider `O=C(O)/C=C/c1ccc([N+](=O)[O-])cc1`, for which the survivor count under setting [13] is given as 3 of 3.

Regarding `N=C(N)c1ccc(SCCCCCSc2ccc(C(=N)N)cc2)cc1`, the T/C was 126 % of control (dose: 3.13 mg/kg/injection, schedule: Q01DX009 (ip), vehicle: saline); 129 % of control (dose: 6.25 mg/kg/injection, schedule: Q01DX009 (ip), vehicle: saline); 146 % of control (dose: 12.5 mg/kg/injection, schedule: Q01DX009 (ip), vehicle: saline). Besides, for the setting “dose: 25.0 mg/kg/injection, schedule: Q01DX009 (ip), vehicle: saline with Tween-80”, the survivor count is listed as 5 of 6.

As for `CSC(=O)NC(=Nc1ccccc1)NC(=O)c1ccccc1`, the survivor count under setting [2] is 6 of 6 and the survivor count under setting [3] was 5 of 6.

Turning to `CN(C)CCS(=O)(=O)O`, the survivor count runs as follows: (dose: 12.5 mg/kg/injection, schedule: Q04DX003 (ip), vehicle: saline) 6 of 6; (dose: 25.0 mg/kg/injection, schedule: Q04DX003 (ip), vehicle: saline) 6 of 6.

Regarding `CCCCCCCCCCCC1=C(O)C(=O)C(I)=C(O)C1=O`, the survivor count runs as follows: (dose: 50.0 mg/kg/injection, schedule: Q01DX005 (ip), vehicle: saline with Tween-80) 1 of 6; (dose: 200.0 mg/kg/injection, schedule: Q01DX005 (ip), vehicle: saline with Tween-80) 0 of 6.

On to `COc1cccc2c(Nc3ccc4c(c3)OCO4)c(C(=O)O)cnc12`, for which, under “dose: 240.0 mg/kg/injection, schedule: Q01DX005 (ip), vehicle: Klucel + Tween-80”, the survivor count is 2 of 6.

On to `COc1ccc(C(c2cc3c(cc2O)OCO3)N2CCCC2)c(OC)c1` (stereo not drawn), for which the survivor count (dose: 240.0 mg/kg/injection, schedule: Q01DX005 (ip), vehicle: Klucel (hydroxypropylcellulose) (HPC)) is listed as 5 of 6.

Turning to `CC(=O)Nc1c(Cl)c(Cl)c2c(c1Cl)Cc1cc(Cl)c(Cl)cc1-2`, the survivor count runs as follows: under setting [11], 3 of 6; under setting [12], 2 of 6; under setting [13], 0 of 6.

For the molecule `CCOC(=O)/C(C#N)=C(\C)c1ccc2ccccc2c1`, the survivor count is, setting by setting: under setting [5], 0 of 6; under setting [6], 0 of 6; under setting [7], 0 of 6.
